Experimental findings from ChEMBL document CHEMBL3102773, “The synthesis and comparative receptor binding affinities of novel, isomeric pyridoindolobenzazepine scaffolds” (Bioorg Med Chem Lett, 2014) are described below.

Chains of the proteins cited; added tags and fusions are not shown.
UniProt P41595, whole entry: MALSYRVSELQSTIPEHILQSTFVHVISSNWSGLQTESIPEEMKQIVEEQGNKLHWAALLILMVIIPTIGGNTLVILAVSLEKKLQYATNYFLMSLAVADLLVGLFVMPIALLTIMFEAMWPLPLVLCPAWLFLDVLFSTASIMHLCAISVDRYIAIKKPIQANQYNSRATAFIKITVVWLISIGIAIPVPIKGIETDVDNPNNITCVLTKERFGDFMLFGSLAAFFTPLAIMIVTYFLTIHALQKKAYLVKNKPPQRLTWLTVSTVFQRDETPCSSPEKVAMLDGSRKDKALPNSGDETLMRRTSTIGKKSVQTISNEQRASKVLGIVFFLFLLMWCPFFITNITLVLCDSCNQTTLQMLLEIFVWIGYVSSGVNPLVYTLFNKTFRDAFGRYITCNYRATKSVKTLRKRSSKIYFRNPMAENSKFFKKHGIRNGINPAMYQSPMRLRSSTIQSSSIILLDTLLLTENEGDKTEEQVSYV

This experiment has as its target 5-hydroxytryptamine receptor 2B (Homo sapiens, UniProt P41595).

`CC[C@@H](CO)NC(=O)[C@@H]1C=C2c3cccc4c3c(cn4C)C[C@H]2N(C)C1` [METHYSERGIDE] gave a Ki of 7.6 nM.
